Results from patent publication US20200168293A1 (UCB, published 2020).
Results are given in words; binding and its absence hold for the method and conditions named. Some entries that bind do so weakly or less than the wild type.

Protein sequences, listed by entry. Tags and fused reporters are not part of them. Lines headed by an entry give the natural chain unless they say otherwise; changes in a name come on top.
UniProt Q14145: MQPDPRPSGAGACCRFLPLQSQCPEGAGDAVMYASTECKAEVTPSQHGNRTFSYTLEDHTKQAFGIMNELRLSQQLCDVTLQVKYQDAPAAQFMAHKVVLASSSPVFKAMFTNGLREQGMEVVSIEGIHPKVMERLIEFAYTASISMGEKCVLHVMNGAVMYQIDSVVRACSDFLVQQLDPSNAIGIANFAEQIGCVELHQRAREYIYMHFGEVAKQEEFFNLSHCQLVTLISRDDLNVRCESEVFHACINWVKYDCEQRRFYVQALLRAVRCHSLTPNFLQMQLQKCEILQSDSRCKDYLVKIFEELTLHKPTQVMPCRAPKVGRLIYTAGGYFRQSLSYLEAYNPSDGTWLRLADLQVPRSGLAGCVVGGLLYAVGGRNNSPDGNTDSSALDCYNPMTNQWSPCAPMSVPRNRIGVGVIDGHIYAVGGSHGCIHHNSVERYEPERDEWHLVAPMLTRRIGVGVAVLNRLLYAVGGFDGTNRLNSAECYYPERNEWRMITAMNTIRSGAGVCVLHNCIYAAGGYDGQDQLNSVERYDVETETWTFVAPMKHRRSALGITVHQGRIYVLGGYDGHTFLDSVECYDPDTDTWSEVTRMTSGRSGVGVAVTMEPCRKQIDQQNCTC

Experiments:
[1] = molecular target: Keap1 (Kelch 1-6 domains, AA 314-611) (Homo sapiens (Human)) (UniProt Q14145); assay: SPR competition, Nrf2 peptide titrated against constant Keap1 over captured G54.1 or G85 Fab
[2] = molecular target: Keap1 (Kelch 1-6 domains, AA 314-611) (Homo sapiens (Human)) (UniProt Q14145); assay: SPR competition: Nrf2 peptide titrated (0-3162 nM) against 100 nM Keap1, binding to captured Fab G85 is blocked
[3] = molecular target: Keap1 (Kelch 1-6 domains, AA 314-611) (Homo sapiens (Human)) (UniProt Q14145); assay: SPR competition: Nrf2 peptide titrated (0-1000 nM) against 100 nM Keap1, binding to captured Fab G54.1 is blocked

binding [1]: binds | binding [2]: binds | binding [3]: binds
Binder: LQLDEETGEFLPIQ (N-terminal biotin-PEG; C-terminal amide) [Nrf2 peptide analogue biotin-PEG-…-amide]
